Measurements: patent US20240254533A1, “METHODS FOR PRODUCING TRYPTAMINE DERIVATIVES” (OCTARINE BIO APS, priority 2021, published 2024)
For at least one compound, name, drawing or mass did not settle the structure.

Assay: Chemical stability of substituted tryptamine derivatives under alkaline, acidic, oxidative and heat stress
Assay type: physicochemical
Protocol: Chemical stability of substituted tryptamine derivatives was determined under alkaline, acidic, oxidative and heat stress as follows. 25 mM stock solutions of the target tryptamine molecules were prepared in 100% methanol. 15 μL is mixed with 5 μL of 400 mM HCl solution (final pH=1.1), 400 mM NaOH solution (Final pH=12.5), 12% H2O2 solution (final concentration 3%), or H2O pH 7.0. Acidic, alkaline and oxidative samples were incubated at 30° C. for 24 h while samples in water were incubated at 80° C. for 24 h. A control under ambient conditions was also prepared where 15 μL of the molecule was added to 5 μL H2O pH 7.0 and incubated at 30° C. After 24 h samples were placed on ice and 60 μL of ice-cold 100% methanol is added to each sample. Samples were centrifuged and transferred to HPLC vials for analysis. The remaining concentration was quantified by comparing to authentic analytical standards. Determining the presence of degradation products were determined by comparing with authentic analytical standards.
While the added phosphate group of psilocybin helps protect the molecule from degradation, psilocybin is also relatively unstable, prone to dephosphorylation to psilocin and subsequent degradation. The instability of these molecules hinders formulation and delivery of the compound for therapeutic use. To improve the chemical stability of the active compound psilocin, glycosylation can be used as an effective strategy. […] Degradation of each compound was assessed by measuring the amount of compound remaining after 24 h exposure to each condition.

Structure (SMILES): CN(C)CCc1c[nH]c2cccc(OP(=O)(O)O)c12 [Psilocybin]
- % left after 24 h (3% H2O2, 24 h incubation): 87.0%
- % left after 24 h (4° C., 24 h incubation): 97.5%
- % left after 24 h (30° C., 24 h incubation): 97.5%
- % left after 24 h (80° C., 24 h incubation): 84.6%
- % left after 24 h (Control): 100.0%
- % left after 24 h (pH = 1.1 (HCl), 24 h incubation): 94.0%
- % left after 24 h (pH = 12.5 (NaOH), 24 h incubation): 93.0%
